Results published in patent EP2899279A1.
Results are given in words; binding and its absence hold for the method and conditions named. Some binding calls cover weakened binding; strength is not graded here. For part of these data: Sequences can lack the tags named with a protein.

How the values were obtained:
[1] = target: T1, Grapevine fanleaf virus strain F13 (purified viral particles) (Grapevine fanleaf virus, strain F13) (UniProt P18474); test: DAS-ELISA, legend of Figure 3B
T1 sequence (looked up): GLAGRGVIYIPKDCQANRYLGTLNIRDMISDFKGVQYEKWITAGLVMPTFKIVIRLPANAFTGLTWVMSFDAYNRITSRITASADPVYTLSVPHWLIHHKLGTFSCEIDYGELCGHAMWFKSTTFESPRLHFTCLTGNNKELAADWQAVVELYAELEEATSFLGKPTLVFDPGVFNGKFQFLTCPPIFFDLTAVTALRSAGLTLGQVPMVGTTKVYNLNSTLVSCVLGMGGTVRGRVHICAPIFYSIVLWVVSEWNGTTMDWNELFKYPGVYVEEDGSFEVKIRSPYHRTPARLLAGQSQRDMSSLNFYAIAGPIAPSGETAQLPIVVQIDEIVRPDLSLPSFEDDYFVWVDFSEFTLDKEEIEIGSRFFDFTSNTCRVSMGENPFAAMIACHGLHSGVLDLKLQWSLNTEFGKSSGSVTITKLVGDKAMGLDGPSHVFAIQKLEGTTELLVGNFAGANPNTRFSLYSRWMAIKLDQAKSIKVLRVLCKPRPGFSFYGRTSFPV

[2] = target: T1, Grapevine fanleaf virus strain F13 (purified viral particles) (Grapevine fanleaf virus, strain F13); test: DAS-ELISA: virus captured by anti-GFLV polyclonals, StrepII tagged Nb23 at 1 µg/ml as detection antibody
[3] = target: T1, Grapevine fanleaf virus strain F13 (purified viral particles) (Grapevine fanleaf virus, strain F13); test: phage display biopanning and phage-ELISA against purified GFLV-F13 (VHH on phage)

B1: StrepII tagged Nb23 (VHH, not shown: small tags and cut ends)
VHH: QVQLQESGGGSVQVGGSLRVACAASGDTFSGYLAAWFRQAPGKGREGVAAINSKRHTTSYADSVKGRFTISKDNADNIMYLEMNSLKPEDTAIYYCAAADAIGLAEYWSTPTLSAARYKYWGQGTQVTVSS
**Q.** With B1 as the binder, how does the binding [1] read?
**A.** binds

**Q.** And the binding [2]?
**A.** binds

B2: Nbp75 (VHH)
VHH: QVQLQESGGGSVQAGGSLRLSCVASEYPSSSTAMAWFRQAPGKEREGVAAINSVRHTTSYADSVKGRFTISKDNADNMMYLEMNSLKPEDTAIYYCAAADAIGLAEYWSTPTLSAARYKYWGQGTQVTVSS
**Q.** B2 was tested. Which binding [3] did it give?
**A.** binds
